# These are yes or no findings as the source states them, for the method shown. In cells and extracts the contact can be indirect. Some results given as binding are weak or reduced against the parent protein; the word gives no strength.
# By UniProt entry, the sequences of proteins in these tests, tags left out.
# UniProt O35129: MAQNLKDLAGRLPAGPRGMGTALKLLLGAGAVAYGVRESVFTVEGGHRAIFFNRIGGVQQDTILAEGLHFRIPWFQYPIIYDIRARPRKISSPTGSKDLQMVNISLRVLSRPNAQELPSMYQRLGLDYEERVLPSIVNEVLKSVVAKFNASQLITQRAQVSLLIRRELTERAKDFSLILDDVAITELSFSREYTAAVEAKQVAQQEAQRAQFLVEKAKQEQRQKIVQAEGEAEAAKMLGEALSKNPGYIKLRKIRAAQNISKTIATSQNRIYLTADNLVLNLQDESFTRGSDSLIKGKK
# Biological target: Prohibitin 2 (UniProt O35129)
# Test: co-IP; cell lysate (150 mM NaCl, 10% glycerol, 20 mM Tris-HCl pH 7.4, 2 mM EDTA, 0.5% Nonidet P-40, 0.5% Triton X-100, protease inhibitor) incubated with anti-Flag M2 affinity gel at 4 °C overnight; six washes; Western blot; Flag-tagged bait not stated
binder,measurement,value
"Dual-specificity phosphatase 1 (enzyme, UniProt P28563 1-367) MVMEVGILDAGGLRALLREGAAQCLLLDCRSFFAFNAGHIAGSVNVRFSTIVRRRAKGAMGLEHIVPNAELRGRLLAGAYHAVVLLDERSASLDGAKRDGTLALAAGALCREARSTQVFFLQGGYEAFSASCPELCSKQSTPTGLSLPLSTSVPDSAESGCSSCSTPLYDQGGPVEILSFLYLGSAYHASRKDMLDALGITALINVSANCPNHFEGHYQYKSIPVEDNHKADISSWFNEAIDFIDSIKDAGGRVFVHCQAGISRSATICLAYLMRTNRVKLDEAFEFVKQRRSIISPNFSFMGQLLQFESQVLAPHCSAEAGSPAMAVLDRGTSTTTVFNFPVSIPVHPTNSALNYLKSPITTSPSC",binding,binds
